Record: PubChem BioAssay AID1259308 (NCATS, 2017)
Aim: 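Genes whose loss raises luciferase production in HEK293 cells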 (primary screen). Cells: human HEK293 embryonic kidney cells stably expressing firefly luciferase (HEK-CMV-Luc2-Hygro). Reagent: single siRNA against human genes, 0.8 pmol siRNA per well. Duration: 72 h. Measurement: 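Reporter luminescence and viable-cell signal on separate replicate plates, given as percent of non-targeting control and median/MAD z-scores, plus per-cell luciferase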. Reading the numbers: total luciferase, z-score and total luciferase, % of control: higher = more reporter protein produced. Active means: 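Active when the median/MAD z-score for overall luciferase is greater than 3; a gene was taken forward for validation with new siRNAs if at least two of its three siRNAs passed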. Meaning of the calls: active = raised luciferase; inactive = no rise.
Shown is one part, drawn at random, of about 59,000 reagents. In the full data, about 1,510 (2.6%) were called active. 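Calls use total luciferase alone and ignore viability, so some active siRNAs may act by altering cell number.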 Reagents against one gene are numbered here. Not all columns of the deposit are shown.

Against KCND1 (potassium voltage-gated channel subfamily D member 1) #1 the deposit lists total luciferase, z-score -0.276; total luciferase, % of control 76.4; inactive.
After knock-down of KCND1 (potassium voltage-gated channel subfamily D member 1) #2, the screen gave total luciferase, z-score -0.961; total luciferase, % of control 62.8; inactive.
With knock-down of KCND1 (potassium voltage-gated channel subfamily D member 1) #3, the screen gave total luciferase, z-score 0.0892; total luciferase, % of control 83.7; inactive.
For FYTTD1 (forty-two-three domain containing 1) #1, the values are total luciferase, z-score 2.55; total luciferase, % of control 133; inactive.
FYTTD1 (forty-two-three domain containing 1) #2 scored total luciferase, z-score -0.578; total luciferase, % of control 70.4; inactive.
For FYTTD1 (forty-two-three domain containing 1) #3, the entry reads total luciferase, z-score 2.19; total luciferase, % of control 125; inactive.
With knock-down of USP32 (ubiquitin specific peptidase 32) #1, the screen gave total luciferase, z-score -0.502; total luciferase, % of control 71.9; inactive.
With knock-down of USP32 (ubiquitin specific peptidase 32) #2 the results were total luciferase, z-score 0.0224; total luciferase, % of control 82.3; inactive.
For USP32 (ubiquitin specific peptidase 32) #3 the deposit lists total luciferase, z-score -1.92; total luciferase, % of control 43.8; inactive.
Depletion of SEMA3B (semaphorin 3B) #1 came out at: total luciferase, z-score 0.0512; total luciferase, % of control 82.9; inactive.
After knock-down of SEMA3B (semaphorin 3B) #2, the record shows total luciferase, z-score -0.495; total luciferase, % of control 72; inactive.
Knock-down of SEMA3B (semaphorin 3B) #3 gave: total luciferase, z-score 0.728; total luciferase, % of control 96.4; inactive.
YBX1 (Y-box binding protein 1) #1 scored total luciferase, z-score 1.11; total luciferase, % of control 104; inactive.
Against YBX1 (Y-box binding protein 1) #2, the entry reads total luciferase, z-score 0.0444; total luciferase, % of control 82.8; inactive.
For YBX1 (Y-box binding protein 1) #3, the values are total luciferase, z-score -0.194; total luciferase, % of control 78; inactive.
For STK38L (serine/threonine kinase 38 like) #1, the entry reads total luciferase, z-score 1.69; total luciferase, % of control 115; inactive.
Depletion of STK38L (serine/threonine kinase 38 like) #2 gave: total luciferase, z-score -0.024; total luciferase, % of control 81.4; inactive.
After knock-down of STK38L (serine/threonine kinase 38 like) #3 the results were total luciferase, z-score -0.139; total luciferase, % of control 79.1; inactive.
Depletion of PIH1D2 (PIH1 domain containing 2) #1 came out at: total luciferase, z-score 0.72; total luciferase, % of control 96.2; inactive.
After knock-down of PIH1D2 (PIH1 domain containing 2) #2 the results were total luciferase, z-score 5.47; total luciferase, % of control 191; active.
Knock-down of PIH1D2 (PIH1 domain containing 2) #3 came out at: total luciferase, z-score 0.0947; total luciferase, % of control 83.8; inactive.
With knock-down of NR1I2 (nuclear receptor subfamily 1 group I member 2) #1, the record shows total luciferase, z-score -0.497; total luciferase, % of control 72; inactive.
After knock-down of NR1I2 (nuclear receptor subfamily 1 group I member 2) #2, the record shows total luciferase, z-score 0.793; total luciferase, % of control 97.7; inactive.
After knock-down of NR1I2 (nuclear receptor subfamily 1 group I member 2) #3, the record shows total luciferase, z-score -1.18; total luciferase, % of control 58.5; inactive.
Silencing of SCGB2A2 (secretoglobin family 2A member 2) #1 gave: total luciferase, z-score -1.27; total luciferase, % of control 56.6; inactive.
Against SCGB2A2 (secretoglobin family 2A member 2) #2 the deposit lists total luciferase, z-score 3.9; total luciferase, % of control 159; active.
Depletion of SCGB2A2 (secretoglobin family 2A member 2) #3 came out at: total luciferase, z-score 1.2; total luciferase, % of control 106; inactive.
Depletion of NUDT10 (nudix hydrolase 10) #1 gave: total luciferase, z-score 2.95; total luciferase, % of control 140; inactive.
After knock-down of NUDT10 (nudix hydrolase 10) #2, the screen gave total luciferase, z-score 0.289; total luciferase, % of control 87.6; inactive.
NUDT10 (nudix hydrolase 10) #3 showed total luciferase, z-score -1.2; total luciferase, % of control 58; inactive.
TPP2 (tripeptidyl peptidase 2) #1 showed total luciferase, z-score 0.798; total luciferase, % of control 97.8; inactive.
With knock-down of TPP2 (tripeptidyl peptidase 2) #2 the results were total luciferase, z-score -0.0733; total luciferase, % of control 80.4; inactive.
TPP2 (tripeptidyl peptidase 2) #3 scored total luciferase, z-score -1.61; total luciferase, % of control 49.9; inactive.
DEFB134 (defensin beta 134) #1 scored total luciferase, z-score 1.94; total luciferase, % of control 121; inactive.
DEFB134 (defensin beta 134) #2 showed total luciferase, z-score -0.389; total luciferase, % of control 74.2; inactive.
For DEFB134 (defensin beta 134) #3, the values are total luciferase, z-score -0.135; total luciferase, % of control 79.2; inactive.
CST11 (cystatin 11) #1 scored total luciferase, z-score 2.02; total luciferase, % of control 122; inactive.
Against CST11 (cystatin 11) #2 the deposit lists total luciferase, z-score -1.42; total luciferase, % of control 53.7; inactive.
Knock-down of CST11 (cystatin 11) #3 resulted in: total luciferase, z-score 0.143; total luciferase, % of control 84.7; inactive.
Knock-down of NSMCE4A (NSE4A component of SMC5/6 complex) #1 resulted in: total luciferase, z-score 0.0199; total luciferase, % of control 82.3; inactive.
After knock-down of NSMCE4A (NSE4A component of SMC5/6 complex) #2, the screen gave total luciferase, z-score 0.863; total luciferase, % of control 99.1; inactive.
For NSMCE4A (NSE4A component of SMC5/6 complex) #3, the entry reads total luciferase, z-score -0.344; total luciferase, % of control 75.1; inactive.

Just “total luciferase, % of control”, for 5 of the entries above:
USP32 (ubiquitin specific peptidase 32) #2: 82.3
USP32 (ubiquitin specific peptidase 32) #3: 43.8
SEMA3B (semaphorin 3B) #1: 82.9
SEMA3B (semaphorin 3B) #2: 72
SEMA3B (semaphorin 3B) #3: 96.4
